# No constants are given. Whether binding was seen depends on the method and setting. Some entries that bind do so weakly or less than the wild type.
# Sequences of proteins named here, by UniProt entry; tags and fusion partners are left off. A change or cut given only in a name is not applied to a line headed by its entry.
# UniProt P13501: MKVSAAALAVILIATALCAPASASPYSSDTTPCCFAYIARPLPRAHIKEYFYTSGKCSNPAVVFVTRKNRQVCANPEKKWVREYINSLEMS
# Key:
# recombinant CCR1 [1] = biological target: T1, recombinant CCR1 (UniProt P32246 1-355, limits assumed); experiment: SPA equilibrium competition with [125I]-MIP-1α on CHO-CCR1 membranes
# T1 construct: whole, on cells; The assay used membranes of CHO transfectants, not whole cells
# T1 sequence (looked up): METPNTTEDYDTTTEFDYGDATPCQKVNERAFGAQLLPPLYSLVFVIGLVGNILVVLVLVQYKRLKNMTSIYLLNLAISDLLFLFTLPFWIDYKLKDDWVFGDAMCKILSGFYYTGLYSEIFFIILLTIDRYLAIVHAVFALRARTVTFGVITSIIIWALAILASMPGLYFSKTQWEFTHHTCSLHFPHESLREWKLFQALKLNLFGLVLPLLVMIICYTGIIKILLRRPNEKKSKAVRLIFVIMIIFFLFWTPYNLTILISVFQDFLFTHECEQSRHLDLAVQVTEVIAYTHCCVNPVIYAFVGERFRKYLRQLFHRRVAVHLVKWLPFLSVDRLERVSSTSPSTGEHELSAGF
# Description: Competitors were prepared by serial dilutions of the unlabelled chemokines in binding buffer to cover the range 10^-6-10^-12 M. The binding buffer used was 50 mM HEPES, pH 7.2 containing 1 mM CaCl_2, 5 mM MgCl_2, 0.15 M NaCl and 0.5% BSA. Wheatgerm SPA beads (Amersham) were solubilised in PBS to 50 mg/ml, and diluted in the binding buffer to a 10 mg/ml, and the final concentration in the assay was 0.25 mg/well. Membranes prepared from CHO cells expressing CCR1 or CCR5 were stored at −80° C. and diluted in the binding buffer to a 80 μg/ml. Equal volumes of membrane and beads stocks were mixed before performing the assay to reduce background. […] The plates were incubated at room temperature with agitation for 4 hours. Radioactivity was measured and data analysed as described for the heparin-binding assay.
# MIP-1α for binding to recombinant CCR1 and CCR5 in membranes prepared from CHO stable transfectants. There was no significant difference in any of the single mutations on both receptors (results not shown).
# recombinant CCR1 [2] = biological target: T1, recombinant CCR1; experiment: SPA equilibrium competition with [125I]-MIP-1α on CHO-CCR1 membranes; WT RANTES is the reference
binding (recombinant CCR1 [1]),binding (recombinant CCR1 [2]),Substance
binds,,K45A-RANTES mutant (from UniProt P13501 24-91) (ligand)
binds,,K55A-RANTES mutant (from UniProt P13501 24-91) (ligand)
binds,,K56A-RANTES mutant (from UniProt P13501 24-91) (ligand)
binds,,R44A-RANTES mutant (from UniProt P13501 24-91) (ligand)
binds,,R47A-RANTES mutant (from UniProt P13501 24-91) (ligand)
binds,,R59A-RANTES mutant (from UniProt P13501 24-91) (ligand)
,binds,Wild-type (WT) RANTES (from UniProt P13501 24-91) (ligand)
